# Test results as given in PubChem BioAssay AID1487 (National Center for Advancing Translational Sciences (NCATS), 2009).
# Some of the results follow. Shown are side measurements of this screen, not its main read-out; they come without a call. Most of these compounds were active or inconclusive in the main read-out, so they are no random draw. The note in brackets gives the kind of curve behind each potency; many fits are weak.
# Experiment: qHTS Assay for Modulators of Lamin A Splicing
# Settings: HeLa LMNA splicing GFP/RFP minigene ratio, 48 h
# Outline: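 S3 HeLa cells stably expressing lamin A-EGFP splicing minigene plus DsRed2, 600 cells/well, 48 h compound exposure at 37C. Laser-scanning cytometry; analysed as GFP (500-530 nm)/RFP (575-640 nm) total intensity ratio; 0.5% DMSO vehicle.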
# [1] = measured here: GFP splicing reporter channel
# [2] = measured here: RFP viability control channel
Compound,AC50 [1],AC50 [2]
NS(=O)(=O)c1ccc(CCNC(=O)COC(=O)CCc2ccccc2)cc1,"11.2 µM [falling, partial curve, poor fit]",–
CC(C)(C)n1c(=O)[nH]c2c(c1=O)CCC2,–,"5.01 µM [falling, partial curve, poor fit]"
O=c1c2ccccc2nnn1Cc1ccccc1Cl,"0.01 µM [falling, full curve, poor fit]","0.0316 µM [falling, full curve, poor fit]"
O=C(COC(=O)/C=C/c1ccc(Cl)cc1)Nc1ccccc1,"0.0447 µM [falling, full curve, poor fit]","8.91 µM [rising, partial curve, poor fit]"
Cc1ccc(Cl)cc1N1CCN(C(=O)COCc2cc(-c3ccc4c(c3)OCO4)on2)CC1,"35.5 µM [rising, partial curve]","28.2 µM [rising, partial curve]"
Cc1cc(NC(=O)CCC(=O)N(Cc2ccco2)C(C(=O)NC2CCCCC2)c2cccs2)no1 (stereo not drawn),"35.5 µM [rising, single point]",–
Cc1ccc(S(=O)(=O)N2CCCCC2C(=O)N2CCN(Cc3ccccc3)CC2)cc1 (stereo not drawn),–,"15.8 µM [rising, single point]"
Nc1ccccc1S(=O)(=O)NC1=NCCCCC1,–,"35.5 µM [rising, single point]"
CC(=NCc1ccco1)c1c(C(F)(F)F)[nH]n(-c2nc3ccccc3s2)c1=O,–,"0.1 µM [falling, full curve, poor fit]"
Cc1ccc2nc(NC(=O)C3CCN(S(=O)(=O)c4cc([N+](=O)[O-])ccc4Cl)CC3)sc2c1,"14.1 µM [rising, single point]","31.6 µM [rising, single point]"
CN(C)c1ncc2nc(-c3ccc(Cl)cc3)c(=O)n(Cc3cccs3)c2n1,"7.08 µM [falling, partial curve]","6.31 µM [falling, partial curve]"
CCOC(=O)c1[nH]c2ccc(OC)cc2c1NC(=O)C(C)N1CCC2(CC1)OCCO2 (stereo not drawn),–,"2.51 µM [falling, partial curve, poor fit]"
CCN(CC)CCNC(=O)c1ccc2c(=O)n3nc(Nc4ccccc4)sc3nc2c1,–,"31.6 µM [rising, single point]"
Cc1ccc(Nc2ccc(S(=O)(=O)N3CCOCC3)cc2[N+](=O)[O-])c(C)c1,"20 µM [rising, partial curve, poor fit]","17.8 µM [rising, partial curve]"
Cc1ccn2c(NC3CCCC3)c(-c3ccccn3)nc2c1,–,"14.1 µM [rising, single point]"
COc1cccc(-c2csc(N3CCN(C(=O)Nc4ccccc4Cl)CC3)n2)c1,"35.5 µM [falling, partial curve]","35.5 µM [falling, single point]"
CC(Sc1nc(N)cc(=O)[nH]1)C(=O)Nc1cccc(Cl)c1 (stereo not drawn),"0.00501 µM [falling, full curve, poor fit]",–
O=C(Nc1ccccc1)c1cccnc1NCCc1ccccc1,–,"0.0126 µM [rising, full curve, poor fit]"

# One compound at a time, from the list above.
# CC(C)(C)n1c(=O)[nH]c2c(c1=O)CCC2 is listed with AC50 [2]: 5.01 µM [falling, partial curve, poor fit]
# CCN(CC)CCNC(=O)c1ccc2c(=O)n3nc(Nc4ccccc4)sc3nc2c1 is listed with AC50 [2]: 31.6 µM [rising, single point]

# Carrying on:

Compound,AC50 [1],AC50 [2]
COc1cccc(NC(=O)CSC(N)=O)c1,–,"0.00316 µM [falling, full curve, poor fit]"
O=[N+]([O-])c1ccc(-c2cnc(NO)nc2)cc1,–,"2.82 µM [rising, partial curve, poor fit]"
O=C(/C=C/c1ccco1)Oc1cc(Br)cc(/C=N/NC(=O)c2ccccc2O)c1,–,"5.62 µM [rising, partial curve]"
CCOc1ccccc1/C=C/C(=O)c1ccc(Cl)cc1,"35.5 µM [falling, single point]","35.5 µM [falling, single point]"
CC1CC(C)CN(C(=O)C(NS(=O)(=O)c2ccc(Br)s2)c2ccccc2)C1 (stereo not drawn),"22.4 µM [rising, single point]","31.6 µM [rising, single point]"
O=C(Nc1ccc(C(=O)OCc2cc(=O)n3c4c(sc3n2)CCCC4)cc1)c1cccc(F)c1,"3.16 µM [rising, single point]",–
S=C(Nc1cccc(Cl)c1Cl)N1CCC2(CC1)OCCO2,–,"5.62 µM [falling, single point]"
COC(=O)c1ccc(C(=O)OC)c(NC(=O)C(C)(C)C)c1,"22.4 µM [falling, single point]",–
Cc1cccn2c(Nc3ccccc3)c(-c3ccccn3)nc12,"35.5 µM [rising, single point]","31.6 µM [rising, single point]"
O=C(CSc1nnc(-c2ccc(Cl)cc2)n1Cc1ccco1)Nc1ccc2c(c1)OCCO2,"35.5 µM [rising, single point]",–
CC(C)(C)c1ccc(C(=O)CC(=O)c2cc(Cl)ccc2O)cc1,"12.6 µM [rising, single point]","12.6 µM [rising, partial curve]"
O=C(CCc1[nH]c2ccccc2c1Sc1ccccc1)NCCO,–,"5.62 µM [falling, partial curve, poor fit]"
COc1ccc([N+](=O)[O-])c2c(=O)ccoc12,"22.4 µM [rising, single point]","0.501 µM [rising, partial curve]"
CN(C1CCCCC1)S(=O)(=O)c1ccc(NC(=O)c2ccc(Br)o2)cc1,–,"17.8 µM [rising, partial curve, poor fit]"
CCSC1(SCC)N=C(N)C2(C#N)C(c3ccc(F)cc3)C12C#N (stereo not drawn),"11.2 µM [falling, partial curve]","11.2 µM [falling, partial curve]"
Cc1ccc(-c2noc(CCC(=O)NCC3CCN(Cc4cccc(C)c4)CC3)n2)cc1,–,"11.2 µM [rising, partial curve]"
O=C(Nc1ccc(S(=O)(=O)N(Cc2ccccc2)c2ccccc2)cc1)c1ccc(F)cc1,"10 µM [falling, partial curve, poor fit]",–
